Results: publication PMC5996148
The other results are listed elsewhere or left out. For some assays here: The exact form of the protein is not confirmed.

Protein sequences, listed by entry. Tags and fused reporters are not part of them. Lines headed by an entry give the natural chain unless they say otherwise; changes in a name come on top.
UniProt Q9BRT6: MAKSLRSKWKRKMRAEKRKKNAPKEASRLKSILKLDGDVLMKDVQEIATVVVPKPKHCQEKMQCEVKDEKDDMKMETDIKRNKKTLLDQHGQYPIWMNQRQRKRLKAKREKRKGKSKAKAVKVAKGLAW

Key:
Assay in all cases: protein microarray (ProtoArray v5.0), streptavidin-Alexa Fluor 647
Conditions in all cases: 3'-biotin; 20 mM Tris (pH 7.5), 5 mM MgCl2, 100 mM KCl, 0.1% Tween-20, A/T-rich and random oligonucleotide blockers; temperature not stated; high values mean tight binding
[1] = test system: C-terminal-binding protein 1 (human)
[2] = test system: C-type lectin domain family 12 member A (human)
[3] = test system: C-type lectin domain family 2 member D (human)
[4] = test system: C10orf26 (human)
[5] = test system: C10orf35 (human)
[6] = test system: C10orf46 (human)
[7] = molecular target: T1, C10orf58 (UniProt Q9BRX8)
T1 sequence: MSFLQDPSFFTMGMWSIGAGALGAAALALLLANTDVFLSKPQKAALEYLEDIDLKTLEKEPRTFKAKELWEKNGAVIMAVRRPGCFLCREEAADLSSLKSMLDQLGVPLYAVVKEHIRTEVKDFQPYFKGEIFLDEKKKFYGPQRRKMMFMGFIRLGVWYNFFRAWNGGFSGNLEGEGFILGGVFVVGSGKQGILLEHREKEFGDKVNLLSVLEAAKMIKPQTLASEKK

[8] = test system: C11orf51 (human)
[9] = test system: C11orf53 (human)
[10] = test system: C11orf58 (human)
[11] = test system: C11orf66 (human)
[12] = test system: C11orf70 (human)
[13] = test system: C11orf74 (human)
[14] = test system: C12orf10 (human)
[15] = molecular target: C12orf31 (UniProt Q9BRT6)
[16] = test system: C12orf41 (human)
[17] = test system: C12orf48 (human)
[18] = test system: C14orf100 (human)
[19] = test system: C14orf119 (human)
[20] = test system: C14orf122 (human)

Sequence: GGGGACAGGGGTATGGGGAGGGG [G4-3 biotinylated (CtG)]
- binding signal [1]: -0.342 z-score
- binding signal [2]: -0.329 z-score
- binding signal [3]: -0.312 z-score
- binding signal [4]: -0.33 z-score
- binding signal [5]: -0.333 z-score
- binding signal [6]: -0.326 z-score
- binding signal [7]: -0.314 z-score
- binding signal [8]: -0.341 z-score
- binding signal [9]: -0.319 z-score
- binding signal [10]: -0.337 z-score
- binding signal [11]: -0.332 z-score
- binding signal [12]: -0.313 z-score
- binding signal [13]: -0.335 z-score
- binding signal [14]: -0.314 z-score
- binding signal [15]: 3.55 z-score
- binding signal [16]: -0.323 z-score
- binding signal [17]: -0.342 z-score
- binding signal [18]: -0.329 z-score
- binding signal [19]: -0.325 z-score
- binding signal [20]: -0.332 z-score
